The target of one assay is NusG (E. coli) (UniProt P0AFG0). Put plainly: condition: 20 μM largest component, 25 μM smaller components; SEC; analytical SEC of mixtures of proteins only; Superdex 200 Increase 3.2/300; 20 μM largest component, 25 μM all smaller components; 20 mM HEPES–NaOH pH 7.5, 50 mM NaCl, 1 mM DTT; incubated at room temperature for 15 min; fractions on SDS-PAGE; both purified.
Assay [1] addresses NusA^ΔAR2 (NusA residues 1–426) (E. coli) (UniProt P0AFF6). The description is as above.

Protein sequences, listed by entry. Tags and fused reporters are not part of them.
UniProt P0AFG0: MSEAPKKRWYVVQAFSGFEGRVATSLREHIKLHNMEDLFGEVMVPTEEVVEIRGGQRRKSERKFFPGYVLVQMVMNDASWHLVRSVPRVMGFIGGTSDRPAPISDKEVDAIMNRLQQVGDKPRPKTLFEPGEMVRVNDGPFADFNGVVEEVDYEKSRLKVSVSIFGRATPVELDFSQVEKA
UniProt P0ADG4: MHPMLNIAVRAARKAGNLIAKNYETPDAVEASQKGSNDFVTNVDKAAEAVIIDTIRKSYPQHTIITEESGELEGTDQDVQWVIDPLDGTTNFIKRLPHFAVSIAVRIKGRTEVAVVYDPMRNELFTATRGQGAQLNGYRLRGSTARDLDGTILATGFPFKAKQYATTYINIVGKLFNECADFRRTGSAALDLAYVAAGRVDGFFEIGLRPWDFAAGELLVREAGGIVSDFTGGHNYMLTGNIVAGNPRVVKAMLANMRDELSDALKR

Results are given in words; binding and its absence hold for the method and conditions named.

Turning to “SuhB (inositol mono-phosphatase SuhB), wild type (from UniProt P0ADG4 1-267)”, the binding result (with NusG (E. coli); in assay [1]) was “no binding” in each case.

The values are drawn from publication PMC6614801.
